Measured values reported in paper PMC5042466.
No constants are given. Whether binding was seen depends on the method and setting. Some entries that bind do so weakly or less than the wild type. Sequences can lack the tags named with a protein.

Biological target: human pi class glutathione S-transferase of subunit type 1 (hGSTP1), with GS-PEITC bound (human), P09211
Assay: crystal structure; hGSTP1 (21.1 mg/ml) mixed with GSH and PEITC, 6 h at 4°C; hanging drop, 20% PEG-8000, 0.2 M Ca(OAc)2, 0.1 M MES pH 6.0; 1.95 Å, space group C2; both purified
Conditions: remark: other sources report otherwise

binding: binds
B1: human pi class glutathione S-transferase of subunit type 1 (hGSTP1), with GS-PEITC bound, P09211 1-210 (enzyme)
chain: MPPYTVVYFPVRGRCAALRMLLADQGQSWKEEVVTVETWQEGSLKASCLYGQLPKFQDGDLTLYQSNTILRHLGRTLGLYGKDQQEAALVDMVNDGVEDLRCKYISLIYTNYEAGKDDYVKALPGQLKPFETLLSQNQGGKTFIVGDQISFADYNLLDLLLIHEVLAPGCLDAFPLLSAYVGRLSARPKLKAFLASPEYVNLPINGNGKQ
